From publication PMC6581720 (Frontiers in Microbiology, 2019)
These are yes or no findings as the source states them, for the method shown. Where a sequence is shown, tags or fusion partners need not be part of it.

How the values were obtained:
[1] = biological target: SpoIVB^S378A (inactive sporulation factor IV B protease, truncated Thr75-Ser426, fused to 6xHis and mMBP tags) (B. subtilis (strain 168)) (UniProt P17896); assay: dynamic light scattering; 0.1, 0.25 and 0.5 mg/ml in 20 mM Tris-HCl, 150 mM NaCl, 5% glycerol pH 8.0, 25°C; both purified
[2] = biological target: SpoIVB^S378A (inactive sporulation factor IV B protease, truncated Thr75-Ser426, fused to 6xHis and mMBP tags) (B. subtilis (strain 168)) (UniProt P17896); assay: SEC; Superdex 200 Increase 10/300 GL, 20 mM Tris-HCl, 500 mM NaCl, 5% glycerol pH 8.0; retention volume 13.54 ml against standards of 158 kDa and 44 kDa; both purified
[3] = biological target: SpoIVB^S378A (inactive sporulation factor IV B protease, truncated Thr75-Ser426, fused to 6xHis and mMBP tags) (B. subtilis (strain 168)) (UniProt P17896); assay: SAXS; 1, 2.5 and 5 mg/ml, 283 K, beamline BL19U2; molecular weight from SAXSMoW; both purified

- binding [1]: no binding (tested: 0.5 mg/ml)
- binding [2]: no binding
- binding [3]: no binding (tested: 5 mg/ml)
B1: SpoIVB^S378A (inactive sporulation factor IV B protease, truncated Thr75-Ser426, fused to 6xHis and mMBP tags) (enzyme, UniProt P17896 75-426)
chain: TGKKSGESELVYDLAGFPIKKTKVHVLPDLKVIPGGQSIGVKLHSVGVLVVGFHQINTSEGKKSPGETAGIEAGDIIIEMNGQKIEKMNDVAPFIQKAGKTGESLDLLIKRDKQKIKTKLIPEKDEGEGKYRIGLYIRDSAAGIGTMTFYEPKTKKYGALGHVISDMDTKKPIVVENGEIVKSTVTSIEKGTGGNPGEKLARFSSERKTIGDINRNSPFGIFGTLHQPIQNNISDQALPVAFSTEVKKGPAEILTVIDDDKVEKFDIEIVSTTPQKFPATKGMVLKITDPRLLKETGGIVQGMAGSPIIQNGKVIGAVTHVFVNDPTSGYGVHIEWMLSEAGIDIYGKEKAS
